These are yes or no findings as the source states them, for the method shown. In cells and extracts the contact can be indirect. Some entries that bind do so weakly or less than the wild type.
Columns and labels:
GluK2a-YFP = GluK2a-YFP (UniProt Q13002); experiment: FRET or BRET; FRET between GluK2a-YFP and CFP-parkin in HEK293T cells, pixel-by-pixel FRET efficiency; also before and after 10 min with 10 mM glutamate
[1] = target: T1, endogenous parkin (mouse brain) (mouse (endogenous in brain)) (UniProt Q9WVS6); experiment: co-IP; endogenous proteins in whole mouse brain and whole human brain lysates; parkin antibody, Protein A or G agarose, washes with 500 mM NaCl, 1% Triton X-100
T1 sequence: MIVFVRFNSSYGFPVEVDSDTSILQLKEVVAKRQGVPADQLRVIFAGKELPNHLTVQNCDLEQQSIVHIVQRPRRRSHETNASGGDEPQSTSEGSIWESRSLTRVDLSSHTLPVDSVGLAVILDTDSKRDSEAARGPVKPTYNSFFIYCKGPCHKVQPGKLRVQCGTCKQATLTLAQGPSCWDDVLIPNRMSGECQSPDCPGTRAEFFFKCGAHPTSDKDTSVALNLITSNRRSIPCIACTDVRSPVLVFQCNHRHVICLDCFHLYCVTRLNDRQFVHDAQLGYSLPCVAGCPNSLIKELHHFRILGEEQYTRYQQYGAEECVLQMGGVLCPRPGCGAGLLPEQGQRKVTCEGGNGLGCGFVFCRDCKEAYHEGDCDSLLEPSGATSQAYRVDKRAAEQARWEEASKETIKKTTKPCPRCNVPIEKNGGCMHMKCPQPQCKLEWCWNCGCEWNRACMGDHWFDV

By UniProt entry, the sequences of proteins in these tests, tags left out. Residues count along the entry.
UniProt Q13002, residues 32-908: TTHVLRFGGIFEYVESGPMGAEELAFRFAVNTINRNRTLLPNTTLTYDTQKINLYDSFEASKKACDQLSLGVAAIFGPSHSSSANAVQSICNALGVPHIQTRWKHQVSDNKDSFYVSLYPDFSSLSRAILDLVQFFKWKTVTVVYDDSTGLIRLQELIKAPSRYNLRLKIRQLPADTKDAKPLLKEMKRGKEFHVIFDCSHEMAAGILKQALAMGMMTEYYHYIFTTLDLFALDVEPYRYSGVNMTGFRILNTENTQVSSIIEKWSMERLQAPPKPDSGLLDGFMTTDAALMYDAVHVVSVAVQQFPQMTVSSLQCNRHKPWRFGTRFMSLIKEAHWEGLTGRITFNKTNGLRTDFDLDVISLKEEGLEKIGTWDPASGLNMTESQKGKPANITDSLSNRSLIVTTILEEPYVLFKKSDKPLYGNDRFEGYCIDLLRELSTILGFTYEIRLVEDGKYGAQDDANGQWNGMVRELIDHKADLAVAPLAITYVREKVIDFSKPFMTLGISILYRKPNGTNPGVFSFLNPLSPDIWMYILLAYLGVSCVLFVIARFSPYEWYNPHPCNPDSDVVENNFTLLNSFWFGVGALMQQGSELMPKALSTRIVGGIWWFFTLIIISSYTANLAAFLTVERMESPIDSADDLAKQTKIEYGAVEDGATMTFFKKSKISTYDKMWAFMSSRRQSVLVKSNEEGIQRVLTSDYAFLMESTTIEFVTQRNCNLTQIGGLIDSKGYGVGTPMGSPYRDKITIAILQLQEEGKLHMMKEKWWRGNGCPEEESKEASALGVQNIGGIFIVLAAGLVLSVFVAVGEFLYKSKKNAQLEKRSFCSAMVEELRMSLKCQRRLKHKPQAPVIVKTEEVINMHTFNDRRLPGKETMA
UniProt O60260: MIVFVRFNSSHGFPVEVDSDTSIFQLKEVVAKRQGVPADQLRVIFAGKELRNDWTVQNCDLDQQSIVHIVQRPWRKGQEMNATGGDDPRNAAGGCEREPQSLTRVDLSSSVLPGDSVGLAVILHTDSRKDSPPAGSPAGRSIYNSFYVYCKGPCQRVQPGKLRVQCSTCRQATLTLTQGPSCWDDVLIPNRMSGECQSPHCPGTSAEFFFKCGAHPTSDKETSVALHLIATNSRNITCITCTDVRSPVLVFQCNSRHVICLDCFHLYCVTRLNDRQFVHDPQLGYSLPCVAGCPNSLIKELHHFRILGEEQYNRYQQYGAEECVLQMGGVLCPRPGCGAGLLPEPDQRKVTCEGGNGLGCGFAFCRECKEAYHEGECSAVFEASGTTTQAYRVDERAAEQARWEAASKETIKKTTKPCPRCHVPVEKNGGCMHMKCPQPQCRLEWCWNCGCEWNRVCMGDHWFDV
UniProt P39087, residues 32-908: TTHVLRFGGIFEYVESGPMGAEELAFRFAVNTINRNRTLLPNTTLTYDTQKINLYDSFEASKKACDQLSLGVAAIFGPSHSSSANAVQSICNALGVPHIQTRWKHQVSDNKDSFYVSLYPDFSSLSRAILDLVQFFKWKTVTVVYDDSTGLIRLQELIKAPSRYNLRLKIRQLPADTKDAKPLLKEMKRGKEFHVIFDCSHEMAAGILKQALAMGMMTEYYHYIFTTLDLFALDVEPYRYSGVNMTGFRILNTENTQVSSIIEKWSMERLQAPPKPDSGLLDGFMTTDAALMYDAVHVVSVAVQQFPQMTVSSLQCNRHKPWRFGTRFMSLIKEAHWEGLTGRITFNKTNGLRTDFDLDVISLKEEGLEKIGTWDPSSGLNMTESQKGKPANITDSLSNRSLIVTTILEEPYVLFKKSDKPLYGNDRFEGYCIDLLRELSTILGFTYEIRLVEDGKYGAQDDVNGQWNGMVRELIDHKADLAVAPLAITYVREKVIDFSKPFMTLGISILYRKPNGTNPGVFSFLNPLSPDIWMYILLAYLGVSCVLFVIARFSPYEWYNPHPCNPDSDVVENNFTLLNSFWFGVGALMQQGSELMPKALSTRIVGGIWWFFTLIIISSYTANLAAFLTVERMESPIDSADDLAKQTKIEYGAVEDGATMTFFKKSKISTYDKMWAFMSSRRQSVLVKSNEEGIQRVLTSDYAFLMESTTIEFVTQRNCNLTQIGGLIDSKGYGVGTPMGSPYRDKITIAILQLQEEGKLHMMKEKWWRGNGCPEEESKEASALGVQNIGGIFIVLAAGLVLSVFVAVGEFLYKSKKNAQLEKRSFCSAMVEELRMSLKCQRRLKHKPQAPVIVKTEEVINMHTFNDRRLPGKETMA

[2] = target: endogenous parkin (human brain) (human (endogenous in brain)) (UniProt O60260); experiment: as above

Substance: CFP-parkin (from UniProt O60260 1-465) (enzyme)
- binding (GluK2a-YFP): binds

Substance: endogenous GluK2 (mouse brain) (from UniProt P39087 32-908) (receptor)
- binding [1]: binds weakly

Substance: endogenous GluK2 (human brain) (from UniProt Q13002 32-908) (receptor)
- binding [2]: binds weakly

From PMC4218952
